These results are taken from publication PMC6956804, “Potent antibacterial activity of MSI-1 derived from the magainin 2 peptide against drug-resistant bacteria” (Theranostics, 2020).

Peptide text beside a SMILES is read from it.

This series is described as follows: CD assay, secondary structure. It is filed as physicochemical. Particulars: peptide 0.1 mg/ml, 37 °C.

With `CC[C@H](C)[C@H](NC(=O)CN)C(=O)N[C@@H](Cc1c[nH]c2ccccc12)C(=O)N[C@@H](CCCCN)C(=O)N[C@@H](Cc1ccccc1)C(=O)N[C@@H](CC(C)C)C(=O)N[C@@H](CCCCN)C(=O)N[C@@H](CCCCN)C(=O)N[C@@H](C)C(=O)N[C@@H](CCCCN)C(=O)N[C@@H](CCCCN)C(=O)N[C@@H](Cc1ccccc1)C(=O)N[C@@H](Cc1c[nH]c2ccccc12)C(=O)N[C@@H](CCCCN)C(N)=O` [MSI-1] (H-GIWKFLKKAKKFWK-NH2), the α-helical content by setting is: (LPS 50 μM) 31.4%; (MLVs 500 μM (0.2 DPPG/DPPE + DPPG molar ratio)) 34.2%; (SDS 50 mM) 97.5%.
